Data published in the supplement of paper PMC6078165.
± gives the standard deviation of the averaged measurements. Values are relative to the signal before dosing, not to a vehicle control; the signal also falls without drug.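 Fibroblast labels denote human fibroblasts, mainly primary ones from uterus (C12385, HUF), lung (H6013), bone (Hs27A), adrenal (HADF) and skin (WS1), plus mammary HMF and breast cancer-associated Hs343T. Cancer cells are basal-like or mesenchymal-like triple-negative breast cancer lines. A hit is a response shift exceeding 3x replicate standard deviation. The tissue of the other fibroblasts is not given here.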

System: Hs578T
Test: relative JC-1 red fluorescence (viability) vs pre-drug, coculture with fibroblast (fraction); higher = more viable cancer cells
Conditions: 10 µM
Protocol: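 JC-1 labelled TNBC cells cocultured 1:1 (1,500 cells each) with CellTrace Violet stained primary or stromal fibroblasts in 384-well plates in FluoroBrite medium, treated with one of 42 anticancer drugs at 0.1, 1, 10 or 100 uM. JC-1 red fluorescence (mitochondrial integrity in cancer cells only) was read by plate reader every 8 h for 72 h. Values are normalised to each well's pre-drug value. The stock of one drug was tenfold lower, so its dose labels may be too high.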

## CS(=O)(=O)CCNCc1ccc(-c2ccc3ncnc(Nc4ccc(OCc5cccc(F)c5)c(Cl)c4)c3c2)o1 [Lapatinib]
8 h
  relative JC-1 red fluorescence: 0.892 ± 0.021
8 h, coculture fibroblast: C12385
  relative JC-1 red fluorescence: 0.817 ± 0.021
8 h, coculture fibroblast: H6013
  relative JC-1 red fluorescence: 0.821 ± 0.0072
8 h, coculture fibroblast: H6019
  relative JC-1 red fluorescence: 0.814 ± 0.013
8 h, coculture fibroblast: H6076
  relative JC-1 red fluorescence: 0.932 ± 0.093
8 h, coculture fibroblast: H6231
  relative JC-1 red fluorescence: 0.86 ± 0.13
8 h, coculture fibroblast: HADF
  relative JC-1 red fluorescence: 0.7856 ± 0.004
8 h, coculture fibroblast: HCFa
  relative JC-1 red fluorescence: 0.8683 ± 0.0038
8 h, coculture fibroblast: HCPF
  relative JC-1 red fluorescence: 0.875 ± 0.18
8 h, coculture fibroblast: HHSteC
  relative JC-1 red fluorescence: 0.8452 ± 0.0075
8 h, coculture fibroblast: HMF
  relative JC-1 red fluorescence: 0.827 ± 0.031
8 h, coculture fibroblast: HPFa
  relative JC-1 red fluorescence: 0.8345 ± 0.0056
8 h, coculture fibroblast: HUF
  relative JC-1 red fluorescence: 0.921 ± 0.052
8 h, coculture fibroblast: Hs27A
  relative JC-1 red fluorescence: 0.815 ± 0.0088
8 h, coculture fibroblast: Hs343T
  relative JC-1 red fluorescence: 0.886 ± 0.12
8 h, coculture fibroblast: WS1
  relative JC-1 red fluorescence: 0.823 ± 0.0098
16 h
  relative JC-1 red fluorescence: 0.923 ± 0.11
16 h, coculture fibroblast: C12385
  relative JC-1 red fluorescence: 0.738 ± 0.017
16 h, coculture fibroblast: H6013
  relative JC-1 red fluorescence: 0.75799 ± 0.00046
16 h, coculture fibroblast: H6019
  relative JC-1 red fluorescence: 0.781 ± 0.011
16 h, coculture fibroblast: H6076
  relative JC-1 red fluorescence: 0.956 ± 0.013
16 h, coculture fibroblast: H6231
  relative JC-1 red fluorescence: 0.96 ± 0.049
16 h, coculture fibroblast: HADF
  relative JC-1 red fluorescence: 0.6901 ± 0.0056
16 h, coculture fibroblast: HCFa
  relative JC-1 red fluorescence: 0.8243 ± 0.004
16 h, coculture fibroblast: HCPF
  relative JC-1 red fluorescence: 0.9674 ± 0.001
16 h, coculture fibroblast: HHSteC
  relative JC-1 red fluorescence: 0.756 ± 0.021
16 h, coculture fibroblast: HMF
  relative JC-1 red fluorescence: 0.842 ± 0.17
16 h, coculture fibroblast: HPFa
  relative JC-1 red fluorescence: 0.7101 ± 0.0056
16 h, coculture fibroblast: HUF
  relative JC-1 red fluorescence: 0.869 ± 0.048
16 h, coculture fibroblast: Hs27A
  relative JC-1 red fluorescence: 0.735 ± 0.019
16 h, coculture fibroblast: Hs343T
  relative JC-1 red fluorescence: 0.929 ± 0.014
16 h, coculture fibroblast: WS1
  relative JC-1 red fluorescence: 0.7333 ± 0.0023
24 h
  relative JC-1 red fluorescence: 0.92 ± 0.1
24 h, coculture fibroblast: C12385
  relative JC-1 red fluorescence: 0.685 ± 0.029
24 h, coculture fibroblast: H6013
  relative JC-1 red fluorescence: 0.727 ± 0.017
24 h, coculture fibroblast: H6019
  relative JC-1 red fluorescence: 0.777 ± 0.012
24 h, coculture fibroblast: H6076
  relative JC-1 red fluorescence: 0.938 ± 0.015
24 h, coculture fibroblast: H6231
  relative JC-1 red fluorescence: 0.926 ± 0.017
24 h, coculture fibroblast: HADF
  relative JC-1 red fluorescence: 0.63 ± 0.01
24 h, coculture fibroblast: HCFa
  relative JC-1 red fluorescence: 0.7474 ± 0.0069
24 h, coculture fibroblast: HCPF
  relative JC-1 red fluorescence: 0.927 ± 0.021
24 h, coculture fibroblast: HHSteC
  relative JC-1 red fluorescence: 0.737 ± 0.0095
24 h, coculture fibroblast: HMF
  relative JC-1 red fluorescence: 0.941 ± 0.015
24 h, coculture fibroblast: HPFa
  relative JC-1 red fluorescence: 0.663 ± 0.0098
24 h, coculture fibroblast: HUF
  relative JC-1 red fluorescence: 0.826 ± 0.035
24 h, coculture fibroblast: Hs27A
  relative JC-1 red fluorescence: 0.681 ± 0.035
24 h, coculture fibroblast: Hs343T
  relative JC-1 red fluorescence: 0.9099 ± 0.0041
24 h, coculture fibroblast: WS1
  relative JC-1 red fluorescence: 0.657 ± 0.0081
32 h
  relative JC-1 red fluorescence: 0.885 ± 0.12
32 h, coculture fibroblast: C12385
  relative JC-1 red fluorescence: 0.644 ± 0.043
32 h, coculture fibroblast: H6013
  relative JC-1 red fluorescence: 0.739 ± 0.029
32 h, coculture fibroblast: H6019
  relative JC-1 red fluorescence: 0.7423 ± 0.0063
32 h, coculture fibroblast: H6076
  relative JC-1 red fluorescence: 0.916 ± 0.03
32 h, coculture fibroblast: H6231
  relative JC-1 red fluorescence: 0.869 ± 0.018
32 h, coculture fibroblast: HADF
  relative JC-1 red fluorescence: 0.602 ± 0.017
32 h, coculture fibroblast: HCFa
  relative JC-1 red fluorescence: 0.698 ± 0.0042
32 h, coculture fibroblast: HCPF
  relative JC-1 red fluorescence: 0.898 ± 0.007
32 h, coculture fibroblast: HHSteC
  relative JC-1 red fluorescence: 0.752 ± 0.011
32 h, coculture fibroblast: HMF
  relative JC-1 red fluorescence: 0.931 ± 0.043
32 h, coculture fibroblast: HPFa
  relative JC-1 red fluorescence: 0.642 ± 0.0076
32 h, coculture fibroblast: HUF
  relative JC-1 red fluorescence: 0.74 ± 0.033
32 h, coculture fibroblast: Hs27A
  relative JC-1 red fluorescence: 0.64 ± 0.049
32 h, coculture fibroblast: Hs343T
  relative JC-1 red fluorescence: 0.895 ± 0.0095
32 h, coculture fibroblast: WS1
  relative JC-1 red fluorescence: 0.621 ± 0.015
40 h
  relative JC-1 red fluorescence: 0.846 ± 0.099
40 h, coculture fibroblast: C12385
  relative JC-1 red fluorescence: 0.616 ± 0.061
40 h, coculture fibroblast: H6013
  relative JC-1 red fluorescence: 0.73 ± 0.042
40 h, coculture fibroblast: H6019
  relative JC-1 red fluorescence: 0.7908 ± 0.006
40 h, coculture fibroblast: H6076
  relative JC-1 red fluorescence: 0.898 ± 0.043
40 h, coculture fibroblast: H6231
  relative JC-1 red fluorescence: 0.849 ± 0.043
40 h, coculture fibroblast: HADF
  relative JC-1 red fluorescence: 0.578 ± 0.023
40 h, coculture fibroblast: HCFa
  relative JC-1 red fluorescence: 0.666 ± 0.014
40 h, coculture fibroblast: HCPF
  relative JC-1 red fluorescence: 0.8609 ± 0.0074
40 h, coculture fibroblast: HHSteC
  relative JC-1 red fluorescence: 0.745 ± 0.0077
40 h, coculture fibroblast: HMF
  relative JC-1 red fluorescence: 0.894 ± 0.042
40 h, coculture fibroblast: HPFa
  relative JC-1 red fluorescence: 0.6428 ± 0.0062
40 h, coculture fibroblast: HUF
  relative JC-1 red fluorescence: 0.707 ± 0.033
40 h, coculture fibroblast: Hs27A
  relative JC-1 red fluorescence: 0.601 ± 0.069
40 h, coculture fibroblast: Hs343T
  relative JC-1 red fluorescence: 0.8475 ± 0.004
40 h, coculture fibroblast: WS1
  relative JC-1 red fluorescence: 0.593 ± 0.019
48 h
  relative JC-1 red fluorescence: 0.839 ± 0.095
48 h, coculture fibroblast: C12385
  relative JC-1 red fluorescence: 0.603 ± 0.057
48 h, coculture fibroblast: H6013
  relative JC-1 red fluorescence: 0.737 ± 0.044
48 h, coculture fibroblast: H6019
  relative JC-1 red fluorescence: 0.833 ± 0.0086
48 h, coculture fibroblast: H6076
  relative JC-1 red fluorescence: 0.912 ± 0.032
48 h, coculture fibroblast: H6231
  relative JC-1 red fluorescence: 0.85 ± 0.059
48 h, coculture fibroblast: HADF
  relative JC-1 red fluorescence: 0.563 ± 0.025
48 h, coculture fibroblast: HCFa
  relative JC-1 red fluorescence: 0.659 ± 0.024
48 h, coculture fibroblast: HCPF
  relative JC-1 red fluorescence: 0.8536 ± 0.005
48 h, coculture fibroblast: HHSteC
  relative JC-1 red fluorescence: 0.7404 ± 0.0058
48 h, coculture fibroblast: HMF
  relative JC-1 red fluorescence: 0.882 ± 0.036
48 h, coculture fibroblast: HPFa
  relative JC-1 red fluorescence: 0.6557 ± 0.0061
48 h, coculture fibroblast: HUF
  relative JC-1 red fluorescence: 0.708 ± 0.042
48 h, coculture fibroblast: Hs27A
  relative JC-1 red fluorescence: 0.581 ± 0.092
48 h, coculture fibroblast: Hs343T
  relative JC-1 red fluorescence: 0.8391 ± 0.0039
48 h, coculture fibroblast: WS1
  relative JC-1 red fluorescence: 0.6 ± 0.0071
56 h
  relative JC-1 red fluorescence: 0.847 ± 0.097
56 h, coculture fibroblast: C12385
  relative JC-1 red fluorescence: 0.604 ± 0.057
56 h, coculture fibroblast: H6013
  relative JC-1 red fluorescence: 0.752 ± 0.064
56 h, coculture fibroblast: H6019
  relative JC-1 red fluorescence: 0.872 ± 0.017
56 h, coculture fibroblast: H6076
  relative JC-1 red fluorescence: 0.891 ± 0.037
56 h, coculture fibroblast: H6231
  relative JC-1 red fluorescence: 0.827 ± 0.067
56 h, coculture fibroblast: HADF
  relative JC-1 red fluorescence: 0.557 ± 0.035
56 h, coculture fibroblast: HCFa
  relative JC-1 red fluorescence: 0.678 ± 0.03
56 h, coculture fibroblast: HCPF
  relative JC-1 red fluorescence: 0.8551 ± 0.0014
56 h, coculture fibroblast: HHSteC
  relative JC-1 red fluorescence: 0.754 ± 0.012
56 h, coculture fibroblast: HMF
  relative JC-1 red fluorescence: 0.849 ± 0.031
56 h, coculture fibroblast: HPFa
  relative JC-1 red fluorescence: 0.709 ± 0.014
56 h, coculture fibroblast: HUF
  relative JC-1 red fluorescence: 0.739 ± 0.042
56 h, coculture fibroblast: Hs27A
  relative JC-1 red fluorescence: 0.593 ± 0.12
56 h, coculture fibroblast: Hs343T
  relative JC-1 red fluorescence: 0.81219 ± 0.00013
56 h, coculture fibroblast: WS1
  relative JC-1 red fluorescence: 0.586 ± 0.011
64 h
  relative JC-1 red fluorescence: 0.825 ± 0.091
64 h, coculture fibroblast: C12385
  relative JC-1 red fluorescence: 0.614 ± 0.043
64 h, coculture fibroblast: H6013
  relative JC-1 red fluorescence: 0.769 ± 0.066
64 h, coculture fibroblast: H6019
  relative JC-1 red fluorescence: 0.871 ± 0.021
64 h, coculture fibroblast: H6076
  relative JC-1 red fluorescence: 0.891 ± 0.055
64 h, coculture fibroblast: H6231
  relative JC-1 red fluorescence: 0.816 ± 0.068
64 h, coculture fibroblast: HADF
  relative JC-1 red fluorescence: 0.543 ± 0.029
64 h, coculture fibroblast: HCFa
  relative JC-1 red fluorescence: 0.723 ± 0.031
64 h, coculture fibroblast: HCPF
  relative JC-1 red fluorescence: 0.822 ± 0.0083
64 h, coculture fibroblast: HHSteC
  relative JC-1 red fluorescence: 0.764 ± 0.018
64 h, coculture fibroblast: HMF
  relative JC-1 red fluorescence: 0.846 ± 0.032
64 h, coculture fibroblast: HPFa
  relative JC-1 red fluorescence: 0.763 ± 0.026
64 h, coculture fibroblast: HUF
  relative JC-1 red fluorescence: 0.795 ± 0.033
64 h, coculture fibroblast: Hs27A
  relative JC-1 red fluorescence: 0.639 ± 0.15
64 h, coculture fibroblast: Hs343T
  relative JC-1 red fluorescence: 0.801 ± 0.011
64 h, coculture fibroblast: WS1
  relative JC-1 red fluorescence: 0.5885 ± 0.0057
72 h
  relative JC-1 red fluorescence: 0.842 ± 0.071
72 h, coculture fibroblast: C12385
  relative JC-1 red fluorescence: 0.633 ± 0.032
72 h, coculture fibroblast: H6013
  relative JC-1 red fluorescence: 0.776 ± 0.071
72 h, coculture fibroblast: H6019
  relative JC-1 red fluorescence: 0.866 ± 0.024
72 h, coculture fibroblast: H6076
  relative JC-1 red fluorescence: 0.878 ± 0.053
72 h, coculture fibroblast: H6231
  relative JC-1 red fluorescence: 0.797 ± 0.071
72 h, coculture fibroblast: HADF
  relative JC-1 red fluorescence: 0.522 ± 0.026
72 h, coculture fibroblast: HCFa
  relative JC-1 red fluorescence: 0.776 ± 0.028
72 h, coculture fibroblast: HCPF
  relative JC-1 red fluorescence: 0.8269 ± 0.0046
72 h, coculture fibroblast: HHSteC
  relative JC-1 red fluorescence: 0.78 ± 0.026
72 h, coculture fibroblast: HMF
  relative JC-1 red fluorescence: 0.827 ± 0.042
72 h, coculture fibroblast: HPFa
  relative JC-1 red fluorescence: 0.774 ± 0.032
72 h, coculture fibroblast: HUF
  relative JC-1 red fluorescence: 0.84 ± 0.028
72 h, coculture fibroblast: Hs27A
  relative JC-1 red fluorescence: 0.654 ± 0.18
72 h, coculture fibroblast: Hs343T
  relative JC-1 red fluorescence: 0.794 ± 0.0097
72 h, coculture fibroblast: WS1
  relative JC-1 red fluorescence: 0.5941 ± 0.0056
